Results published in publication PMC12170584.

Target: FAdV-4 hexon protein (flag-TST-hexon) (fowl adenovirus serotype 4 (FAdV-4))
Experiment: co-IP; lysate of LMH cells stably expressing flag-TST-hexon on anti-FLAG magnetic beads, 4°C overnight, FLAG elution; blots with anti-CCT5, anti-CCT7, anti-HSP70; flag control vector cells as control

B1: chaperonin-containing TCP-1 subunit 7 (CCT7) (protein, UniProt Q5ZJK8 1-553)
chain: MMPTPVILLKEGTDTSQGIPQLVSNINACQVIAEAVRTTLGPRGMDKLIVDDRGKATISNDGATILKLLDVVHPAAKTLVDIAKSQDAEVGDGTTSVTLLAAEFLKQVKPYVEEGLHPQIIIRAFRTATQLAVNKIKDIAVSVKKEDKDEQRSLLEKCAATALSSKLISQSKEFFSKMVVDAVMMLDDLLQLKMIGIKKVQGGALEDSQLVAGVAFKKTFSYAGFEMQPKKYQSPKIALLNVELELKAEKDNAEVRVNTVEDYQAIVDAEWNILYDKLDKIHKSGAKVVLSKLPIGDVATQYFADRDMFCAGRVPEEDLKRTMMACGGSIQTSVNALSDDVLGRCELFEEIQIGGDRYNFFTGCPKAKTCTIILRGGAEQFMEETERSLHDAIMIVRRAIKNDSVVAGGGAIEMELSKYLRDYSRTIPGKQQLLIGAYAKALEIIPRQLCDNAGFDATNILNKLRAKHAQGGMWYGVDVNNEDIADNFEACVWEPAIVRINALTAASEAACLIVSVDETIKNPRSTVDAPPGGRGRGRGQTPQPLRPRSVALS
In the case of B1, the binding is reported as “binds”.

No constants are given. Whether binding was seen depends on the method and setting. In cells and extracts the contact can be indirect. A result given as binding can be weak or reduced; the word gives no strength.
